According to PubChem BioAssay AID2551 (National Center for Advancing Translational Sciences (NCATS), 2010):
The whole screen tested about 310,000 compounds, of which about 17,000 (5.5%) were called active. Inconclusive results, whose numbers are uncertain, are shown with a selection of clear calls. Calls follow the shape of the dose curve; as a rule, active = well fitted inhibition curve with a large enough effect; inconclusive = small, poorly fitted or top-dose-only effect, or effect the other way; inactive = no such curve, though single readings can be large or run the other way. Potencies beside an inconclusive call are fits to weak or partial responses and may not hold up.

Protein sequences, listed by entry. Tags and fused reporters are not part of them. Lines headed by an entry give the natural chain unless they say otherwise; changes in a name come on top.
UniProt P51450: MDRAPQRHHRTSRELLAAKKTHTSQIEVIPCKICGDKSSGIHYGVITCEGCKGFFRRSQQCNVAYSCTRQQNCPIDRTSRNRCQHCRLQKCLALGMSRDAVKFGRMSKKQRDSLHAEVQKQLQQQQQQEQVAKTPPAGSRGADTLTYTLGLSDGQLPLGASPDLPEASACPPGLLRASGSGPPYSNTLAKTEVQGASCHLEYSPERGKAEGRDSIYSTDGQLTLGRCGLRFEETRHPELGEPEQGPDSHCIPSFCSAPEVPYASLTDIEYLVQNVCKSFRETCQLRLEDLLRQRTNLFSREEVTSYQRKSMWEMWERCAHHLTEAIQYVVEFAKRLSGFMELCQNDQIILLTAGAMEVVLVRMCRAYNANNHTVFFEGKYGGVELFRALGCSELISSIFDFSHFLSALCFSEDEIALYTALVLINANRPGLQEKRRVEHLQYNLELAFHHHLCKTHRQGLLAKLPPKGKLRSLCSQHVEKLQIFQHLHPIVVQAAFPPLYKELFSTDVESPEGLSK

The molecules below were run against Nuclear receptor ROR-gamma (Mus musculus) (UniProt P51450) (assay: qHTS for inhibitors of ROR gamma transcriptional activity). Settings: Drosophila S2 Gal4-RORgamma UAS-luciferase reporter, 20 h; series mostly up to 53.6 µM.
In short: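 In this cell-based reporter format, copper sulfate (700 uM final) drives Gal4–ROR gamma fusion expression from a metallothionein promoter in Drosophila Schneider cells; compounds preincubated 1 hr, reporter read after 20 hr at ambient temperature.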
Also: nearly all actives have a fitted effect of over 60% in size.
Potency is read from the fitted curve at half-maximal effect.

Row | Compound | Potency
1 | Cc1ccccc1C(=O)N1CCN(c2ccc(NC(=S)NC(=O)c3ccco3)cc2)CC1 | active: 15.8 µM
2 | O=C(CSc1nc2ccccc2[nH]1)Nc1nc(-c2ccccc2)c(-c2ccccc2)o1 | inconclusive: 25.1 µM [inhibitor, single point]
3 | O=C(c1ccc(N2C(=O)C3CC=C(Cl)CC3C2=O)cc1)N1CCCCC1 (stereo unspecified) | inactive
4 | CCCCN1CNC(=S)N(c2ccc(C(=O)OCC)cc2)C1 | inconclusive: 25.1 µM [inhibitor, single point]
5 | CCOc1cc(/C=N/Nc2nc(-c3cccc(S(=O)(=O)N4CCCC4)c3)cs2)ccc1O | inconclusive: 17.8 µM [activator, partial curve, poor fit]
6 | CCOc1ccccc1-c1nnc2n1N=C(c1ccc(OC)cc1)CS2 | inconclusive: 31.6 µM [activator, single point]
7 | COc1ccc(C(=O)Nc2c(-c3ccccc3)nc3ccccn23)c(OC)c1 | inactive
8 | Cc1ccc(NC(=O)c2cc(-c3ccco3)nc3ccccc23)cc1S(=O)(=O)N1CCOCC1 | inactive
9 | O=C(N/N=C/C=C/c1ccc([N+](=O)[O-])cc1)c1cccs1 | active: 3.98 µM
10 | COc1ccc(C(CNC(=O)COc2ccc([N+](=O)[O-])cc2)N2CCCCC2)cc1 (stereo unspecified) | inactive
11 | C/C(=N/Nc1ccccc1C(=O)O)c1cccs1 | inactive
12 | Cc1ccc2cc(C(=O)O)c(C)nc2c1 | inactive
13 | Cc1cccc(/C=C2\Oc3cc(OS(C)(=O)=O)ccc3C2=O)c1 | inconclusive: 35.5 µM [activator, single point]
14 | Cc1ccc(CNC(=O)C(=O)c2cn(CC(=O)N3CCCC3)c3ccccc23)cc1 | inconclusive: 35.5 µM [activator, single point]
15 | CC(=O)Nc1ccc(S(=O)(=O)Nc2ccc(Cc3ccncc3)cc2)cc1 | inconclusive: 4.47 µM [activator, partial curve]
16 | CCSc1nnc(NC(=O)c2cc(C)oc2C)s1 | inconclusive: 0.005 µM [activator, full curve, poor fit]
17 | NC(=S)N=Nc1c(O)n(Cc2ccccc2)c2ccccc12 | active: 3.16 µM
18 | O=C(Oc1ccc(Cl)c2cccnc12)c1cccnc1 | active: 0.891 µM
19 | CCOC(=O)c1c(/N=C/c2cccc([N+](=O)[O-])c2O)sc(C)c1C | inconclusive: 17.8 µM [inhibitor, single point]
20 | CC12CN(C(=O)c3ccccc3)C3(C#N)CC1CCC23C (stereo unspecified) | inactive
21 | O=C(COC(=O)C(O)c1ccccc1)c1ccc2c(c1)OCCO2 (stereo unspecified) | inconclusive: 0.316 µM [activator, partial curve]
22 | CC(=O)N(C(C)=O)S(=O)(=O)c1ccc(N=NN2CCCCC2)cc1 | inconclusive: 12.6 µM [activator, single point]
23 | CCC(C)NCCOCCOc1ccc(F)cc1 (stereo unspecified) | inactive
24 | COc1ccc(CCNc2cc(C)[nH]c(=O)c2)cc1OC | inactive
25 | O=C(Nc1cc(F)cc(F)c1)c1ccc(NCCc2ccccc2)c([N+](=O)[O-])c1 | inactive
26 | CCOc1ccc(NC(=O)Cn2nnc(C(=O)NCCc3ccc(OC)c(OC)c3)c2N)cc1 | inactive

Nos. 13 to 16, quoted:
Row | Compound | Potency
13 | Cc1cccc(/C=C2\Oc3cc(OS(C)(=O)=O)ccc3C2=O)c1 | inconclusive: 35.5 µM [activator, single point]
14 | Cc1ccc(CNC(=O)C(=O)c2cn(CC(=O)N3CCCC3)c3ccccc23)cc1 | inconclusive: 35.5 µM [activator, single point]
15 | CC(=O)Nc1ccc(S(=O)(=O)Nc2ccc(Cc3ccncc3)cc2)cc1 | inconclusive: 4.47 µM [activator, partial curve]
16 | CCSc1nnc(NC(=O)c2cc(C)oc2C)s1 | inconclusive: 0.005 µM [activator, full curve, poor fit]

The listing continues.

Row | Compound | Potency
27 | CCOc1c(OC)cccc1C(=O)NCC1(c2ccccc2)CCCC1 | inconclusive: 12.6 µM [activator, single point]
28 | C/C(=C\c1cccc(Cl)c1)C(=O)c1c(C)cc(C)[nH]c1=O | inconclusive: 17.8 µM [inhibitor, single point]
29 | CCn1c(SCc2ccccc2)nc2c1c(=O)[nH]c(=O)n2C | inconclusive: 35.5 µM [activator, single point]
30 | c1ccc2[nH]c(CN3CCCCC3)nc2c1 | inactive
31 | COc1cc(N=c2ssnc2Cl)c(OC)cc1Cl | inconclusive: 35.5 µM [inhibitor, single point]
32 | COc1ccc(-n2nnc3c(SCc4ccccc4)ncnc32)cc1 | inconclusive: 10 µM [activator, partial curve, poor fit]
33 | COc1ccc(C(=O)NCc2nnc(SCC(=O)Nc3nc4ccc(C)cc4s3)o2)cc1OC | active: 7.94 µM
34 | O=C(O)/C=C/C(=O)NNC(=O)c1ccccc1Br | active: 11.2 µM
35 | CCCn1c(-c2ccc(F)cc2)nc2c(NC(C)CN(C)C)nc(C)nc21 (stereo unspecified) | inactive
36 | COc1cc(/C=C/C(=O)OC2CC3CCC2(C)C3(C)C)ccc1O (stereo unspecified) | inconclusive: 5.62 µM [activator, single point]
37 | Cc1nn(Cc2ccccc2Cl)c(C)c1C(=O)NCCN1C(=O)S/C(=C\c2ccccc2)C1=O | inconclusive: 25.1 µM [inhibitor, single point]
38 | CCC1COCCS(=O)(=O)N1Cc1ccc(F)cc1 (stereo unspecified) | inactive
39 | Fc1cccc(F)c1/C=N/NC(=S)Nc1cccnc1 | active: 1.26 µM
40 | COc1ccc(Br)cc1C1C2C=CCCC2(C)C(=O)N1Cc1ccccc1 (stereo unspecified) | inconclusive: 11.2 µM [activator, partial curve]
41 | Cc1ccc(N(CC(=O)NCC2CCCO2)S(=O)(=O)c2ccc(Cl)cc2)cc1C (stereo unspecified) | inactive
42 | N#C/C(=C(/O)c1ccc(F)cc1)c1nc2ccccc2s1 | inactive
43 | CC(C(=O)NC1=NCCS1)N1C(=O)C2CC=CCC2C1=O (stereo unspecified) | inactive
44 | CNS(=O)(=O)c1cc(NC(=O)c2cnc(SC)n2-c2ccccc2)ccc1C | inconclusive: 35.5 µM [activator, single point]
45 | CCOc1cc(/C=N/NC(=O)c2cc(-c3ccccc3)nc3ccccc23)ccc1O | inconclusive: 15.8 µM [inhibitor, single point]
46 | CCc1nnc(N/N=C/c2c(Cl)cccc2Cl)n1N | inconclusive: 17.8 µM [inhibitor, single point]
47 | O=[N+]([O-])c1ccccc1OCCCOc1cccc2cccnc12 | inconclusive: 17.8 µM [inhibitor, single point]
48 | CN(C)[C@H]1N(C(=O)c2ccc(Br)cc2)N=C2c3ccccc3S(=O)(=O)N21 | inactive
49 | CCC1CCCCN1C(=O)COc1ccccc1NC(C)=O (stereo unspecified) | inactive
50 | NC(=O)CCS(=O)(=O)c1ccc(Cl)cc1 | inactive
51 | Cc1cc(C)nc(SCc2n[nH]c(=S)n2C)n1 | inactive
